Laboratory results taken from the supplement of paper PMC12889115.
The other results are listed elsewhere or left out. Values are raw readings; no control value is given beside them.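 In the initial screen, polymyxin B was used at a concentration that permeabilizes Salmonella's outer membrane but not its inner membrane. Maximum growth was set by DMSO wells with or without polymyxin B. Since plates varied, data were ranked per plate, and compounds giving the lowest OD600 advanced as hits.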

System: Salmonella enterica serovar Typhimurium SL1344
Assay: bacterial growth OD600 after 18 h with compound and polymyxin B; higher = more bacterial growth (less inhibition)
Details: 50 µM, Mueller-Hinton broth

| Compound | bacterial growth OD600 (polymyxin B 0.75 µg/mL) | bacterial growth OD600 (polymyxin B 1 µg/mL) |
| --- | --- | --- |
| CCOC(=O)N1CCN(C(=O)c2ccc(N3CCC(NC4CCOC(C)(C)C4)CC3)cc2)CC1 (centres undefined) | 0.841 |  |
| Clc1ccc(N2CCC(C3CCN(Cc4cccnc4)CC3)C2)nc1 (centres undefined) | 0.733 |  |
| Cc1cccc(C(=O)N2CCC(N3CCC(C(=O)NCc4cccnc4)CC3)CC2)c1 | 0.763 |  |
| CCN(CC)c1ncccc1CNC(=O)Cn1cccn1 |  | 0.871 |
| COc1cccc(OCc2nc(C(=O)N3CCCCO3)co2)c1 |  | 0.909 |
| CCN1CCCC1CN(CC1CCN(CCOC)CC1)C(=O)CCOC (centres undefined) |  | 0.938 |
| CC(Oc1ccccc1)C(=O)N1CCC(CCC(=O)NC2CC2)CC1 (centres undefined) |  | 0.848 |
| COc1cccc(CN2C(=O)NC(C)(C3CCN(C(=O)c4sccc4Cl)CC3)C2=O)c1OC (centres undefined) | 0.886 |  |
| CC(C)(C)CC(=O)N1CCC(C2(c3ccccn3)NC(=O)N(CCc3cccs3)C2=O)CC1 (centres undefined) | 1 |  |
| CC1CCN(C(=O)C2CCCN(C3CCN(Cc4ccccc4)CC3)C2)CC1 (centres undefined) | 0.904 |  |
| O=C1N(Cc2cccc(Cl)c2)C[C@@H]2C[C@@H](c3ccc(F)c(F)c3)N3CCC[C@@]123 | 0.553 |  |
| COc1ccc(-c2noc(CN(C)CCOc3ccc(C)cc3)n2)c(OC)c1OC |  | 1.2 |
| O=C(NC1CCCc2nc(N3CCC(CO)CC3)ncc21)C1CCCCC1 (centres undefined) | 0.829 |  |
| CSCCC(C)N1CCC(N2CCC(C(=O)NCc3cccnc3)CC2)CC1 (centres undefined) |  | 1.02 |
| O=C(c1csnn1)N1CCc2[nH]nc(-c3ccccc3)c2C1 | 0.874 |  |
| CCC(C)CC(=O)N1CCC(C2(c3ccccn3)NC(=O)N(CCc3cccs3)C2=O)CC1 (centres undefined) | 0.899 |  |
| COCC(=O)N1CCOC(CC(c2ccccc2)c2ccccc2)C1 (centres undefined) |  | 0.804 |
| CC(NC(=O)c1coc(Cn2cnc3ccccc32)n1)c1ccc2[nH]ccc2c1 (centres undefined) |  | 0.972 |
| Cc1ccc(CCNC(=O)C2CCCN(C3CCN(C(=O)C4CC4)CC3)C2)cc1 (centres undefined) | 0.911 |  |

A second format for part of the listing above.
Compound | bacterial growth OD600 (polymyxin B 0.75 µg/mL) | bacterial growth OD600 (polymyxin B 1 µg/mL)
CC(C)(C)CC(=O)N1CCC(C2(c3ccccn3)NC(=O)N(CCc3cccs3)C2=O)CC1 (centres undefined) | 1 | 
CC1CCN(C(=O)C2CCCN(C3CCN(Cc4ccccc4)CC3)C2)CC1 (centres undefined) | 0.904 | 
O=C1N(Cc2cccc(Cl)c2)C[C@@H]2C[C@@H](c3ccc(F)c(F)c3)N3CCC[C@@]123 | 0.553 | 
COc1ccc(-c2noc(CN(C)CCOc3ccc(C)cc3)n2)c(OC)c1OC |  | 1.2
